Source: publication doi:10.1101/2025.05.28.656585
Results are given in words; binding and its absence hold for the method and conditions named. Binding seen in cells or lysates may run through a third protein. Some binding calls cover weakened binding; strength is not graded here. Sequences can lack the tags named with a protein.

Chains of the proteins cited; added tags and fusions are not shown. Lines headed by an entry give the natural chain unless they say otherwise; changes in a name come on top.
UniProt P46824, whole entry: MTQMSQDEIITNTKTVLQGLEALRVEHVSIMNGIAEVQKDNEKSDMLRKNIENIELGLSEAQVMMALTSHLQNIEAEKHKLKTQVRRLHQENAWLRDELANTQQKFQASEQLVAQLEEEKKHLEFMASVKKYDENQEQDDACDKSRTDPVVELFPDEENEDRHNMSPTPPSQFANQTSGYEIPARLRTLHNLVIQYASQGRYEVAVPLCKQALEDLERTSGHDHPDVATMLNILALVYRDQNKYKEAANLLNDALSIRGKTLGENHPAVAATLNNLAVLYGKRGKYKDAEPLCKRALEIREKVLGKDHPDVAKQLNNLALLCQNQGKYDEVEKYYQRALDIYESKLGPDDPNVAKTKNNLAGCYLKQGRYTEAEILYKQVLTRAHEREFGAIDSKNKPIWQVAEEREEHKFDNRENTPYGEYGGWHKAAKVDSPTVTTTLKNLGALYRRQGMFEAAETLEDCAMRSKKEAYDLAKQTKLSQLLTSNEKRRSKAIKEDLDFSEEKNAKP

T1: myc-tagged dNischarin (CG11807) (Drosophila) (UniProt Q7K490)
T1 sequence: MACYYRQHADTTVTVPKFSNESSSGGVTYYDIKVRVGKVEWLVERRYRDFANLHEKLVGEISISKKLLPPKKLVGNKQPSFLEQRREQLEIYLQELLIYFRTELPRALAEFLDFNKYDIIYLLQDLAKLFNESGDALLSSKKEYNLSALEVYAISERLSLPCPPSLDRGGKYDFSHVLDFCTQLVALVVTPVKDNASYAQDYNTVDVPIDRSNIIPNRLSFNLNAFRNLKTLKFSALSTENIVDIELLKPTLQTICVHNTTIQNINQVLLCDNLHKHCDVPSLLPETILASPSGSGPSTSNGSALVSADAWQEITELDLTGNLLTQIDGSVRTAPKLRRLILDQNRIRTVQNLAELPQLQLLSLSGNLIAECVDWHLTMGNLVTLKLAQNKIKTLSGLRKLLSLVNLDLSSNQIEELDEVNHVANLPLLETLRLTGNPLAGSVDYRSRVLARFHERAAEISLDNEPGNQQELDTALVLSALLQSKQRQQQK

T2: myc-tagged full length Sunday Driver (Syd/dJIP3/4) (Drosophila) (UniProt Q9GQF1)
T2 sequence: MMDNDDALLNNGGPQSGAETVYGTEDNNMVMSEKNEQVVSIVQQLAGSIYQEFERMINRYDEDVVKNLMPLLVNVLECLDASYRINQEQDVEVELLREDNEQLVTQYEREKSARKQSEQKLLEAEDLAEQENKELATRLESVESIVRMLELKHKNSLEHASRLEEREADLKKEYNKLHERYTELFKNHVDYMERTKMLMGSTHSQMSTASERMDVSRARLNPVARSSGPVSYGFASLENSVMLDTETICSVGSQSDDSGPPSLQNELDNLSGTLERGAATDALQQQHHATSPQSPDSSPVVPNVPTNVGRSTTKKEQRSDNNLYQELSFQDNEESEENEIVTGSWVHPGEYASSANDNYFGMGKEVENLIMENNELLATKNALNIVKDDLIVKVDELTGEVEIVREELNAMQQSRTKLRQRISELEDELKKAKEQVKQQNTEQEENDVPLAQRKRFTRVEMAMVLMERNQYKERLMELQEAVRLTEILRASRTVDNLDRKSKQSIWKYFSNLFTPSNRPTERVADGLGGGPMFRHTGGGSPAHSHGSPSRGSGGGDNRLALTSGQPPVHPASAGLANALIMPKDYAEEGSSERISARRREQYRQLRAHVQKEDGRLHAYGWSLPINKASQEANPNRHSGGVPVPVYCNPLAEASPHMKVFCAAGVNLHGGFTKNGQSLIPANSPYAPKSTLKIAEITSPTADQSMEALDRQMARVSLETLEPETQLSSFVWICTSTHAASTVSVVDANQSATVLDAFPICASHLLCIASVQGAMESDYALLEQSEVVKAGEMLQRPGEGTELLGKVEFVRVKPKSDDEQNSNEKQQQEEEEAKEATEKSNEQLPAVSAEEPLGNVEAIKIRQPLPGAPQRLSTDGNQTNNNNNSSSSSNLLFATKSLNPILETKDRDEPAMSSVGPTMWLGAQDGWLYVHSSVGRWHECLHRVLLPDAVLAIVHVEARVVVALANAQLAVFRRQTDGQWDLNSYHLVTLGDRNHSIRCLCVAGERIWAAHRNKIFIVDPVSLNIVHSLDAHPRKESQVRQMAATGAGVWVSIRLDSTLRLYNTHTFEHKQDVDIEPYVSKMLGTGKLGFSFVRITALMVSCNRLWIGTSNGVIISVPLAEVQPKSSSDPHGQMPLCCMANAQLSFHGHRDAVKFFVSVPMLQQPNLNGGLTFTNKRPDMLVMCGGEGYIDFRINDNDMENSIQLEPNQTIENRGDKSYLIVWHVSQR

T3: myc-tagged truncated N2-Syd (Syd 1-529) (Drosophila) (UniProt Q9GQF1)
T3 sequence: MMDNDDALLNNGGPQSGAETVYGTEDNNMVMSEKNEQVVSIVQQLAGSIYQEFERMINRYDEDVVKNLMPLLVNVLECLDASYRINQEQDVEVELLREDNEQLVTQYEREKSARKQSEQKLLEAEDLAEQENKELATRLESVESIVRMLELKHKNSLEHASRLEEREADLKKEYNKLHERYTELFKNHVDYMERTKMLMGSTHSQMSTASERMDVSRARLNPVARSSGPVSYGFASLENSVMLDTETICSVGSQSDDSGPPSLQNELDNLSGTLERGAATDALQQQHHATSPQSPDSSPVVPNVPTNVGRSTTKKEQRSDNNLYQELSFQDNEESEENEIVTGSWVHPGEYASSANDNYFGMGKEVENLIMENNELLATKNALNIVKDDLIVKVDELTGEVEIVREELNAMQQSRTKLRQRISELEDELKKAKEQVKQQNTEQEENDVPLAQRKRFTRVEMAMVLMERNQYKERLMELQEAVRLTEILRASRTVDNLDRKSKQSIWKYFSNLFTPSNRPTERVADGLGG


Columns and labels:
Assay in all cases: co-IP
[1] = molecular target: T1, myc-tagged dNischarin (CG11807) (Drosophila)
[2] = molecular target: T2, myc-tagged full length Sunday Driver (Syd/dJIP3/4) (Drosophila)
[3] = molecular target: T3, myc-tagged truncated N2-Syd (Syd 1-529) (Drosophila)
[4] = molecular target: HA-tagged GTP-locked, constitutively active Rab2 Q65L (Drosophila) (UniProt O18333)
[5] = molecular target: HA-tagged wild type Rab2 (Drosophila) (UniProt O18333)

Molecule	binding [1]	binding [2]	binding [3]	binding [4]	binding [5]
myc-tagged truncated N2-Syd (Syd 1-529) (domain or fragment, UniProt Q9GQF1 1-529) MMDNDDALLNNGGPQSGAETVYGTEDNNMVMSEKNEQVVSIVQQLAGSIYQEFERMINRYDEDVVKNLMPLLVNVLECLDASYRINQEQDVEVELLREDNEQLVTQYEREKSARKQSEQKLLEAEDLAEQENKELATRLESVESIVRMLELKHKNSLEHASRLEEREADLKKEYNKLHERYTELFKNHVDYMERTKMLMGSTHSQMSTASERMDVSRARLNPVARSSGPVSYGFASLENSVMLDTETICSVGSQSDDSGPPSLQNELDNLSGTLERGAATDALQQQHHATSPQSPDSSPVVPNVPTNVGRSTTKKEQRSDNNLYQELSFQDNEESEENEIVTGSWVHPGEYASSANDNYFGMGKEVENLIMENNELLATKNALNIVKDDLIVKVDELTGEVEIVREELNAMQQSRTKLRQRISELEDELKKAKEQVKQQNTEQEENDVPLAQRKRFTRVEMAMVLMERNQYKERLMELQEAVRLTEILRASRTVDNLDRKSKQSIWKYFSNLFTPSNRPTERVADGLGG	–	–	–	binds	binds
myc-tagged full length Sunday Driver (Syd/dJIP3/4) (protein, UniProt Q9GQF1 1-1227) MMDNDDALLNNGGPQSGAETVYGTEDNNMVMSEKNEQVVSIVQQLAGSIYQEFERMINRYDEDVVKNLMPLLVNVLECLDASYRINQEQDVEVELLREDNEQLVTQYEREKSARKQSEQKLLEAEDLAEQENKELATRLESVESIVRMLELKHKNSLEHASRLEEREADLKKEYNKLHERYTELFKNHVDYMERTKMLMGSTHSQMSTASERMDVSRARLNPVARSSGPVSYGFASLENSVMLDTETICSVGSQSDDSGPPSLQNELDNLSGTLERGAATDALQQQHHATSPQSPDSSPVVPNVPTNVGRSTTKKEQRSDNNLYQELSFQDNEESEENEIVTGSWVHPGEYASSANDNYFGMGKEVENLIMENNELLATKNALNIVKDDLIVKVDELTGEVEIVREELNAMQQSRTKLRQRISELEDELKKAKEQVKQQNTEQEENDVPLAQRKRFTRVEMAMVLMERNQYKERLMELQEAVRLTEILRASRTVDNLDRKSKQSIWKYFSNLFTPSNRPTERVADGLGGGPMFRHTGGGSPAHSHGSPSRGSGGGDNRLALTSGQPPVHPASAGLANALIMPKDYAEEGSSERISARRREQYRQLRAHVQKEDGRLHAYGWSLPINKASQEANPNRHSGGVPVPVYCNPLAEASPHMKVFCAAGVNLHGGFTKNGQSLIPANSPYAPKSTLKIAEITSPTADQSMEALDRQMARVSLETLEPETQLSSFVWICTSTHAASTVSVVDANQSATVLDAFPICASHLLCIASVQGAMESDYALLEQSEVVKAGEMLQRPGEGTELLGKVEFVRVKPKSDDEQNSNEKQQQEEEEAKEATEKSNEQLPAVSAEEPLGNVEAIKIRQPLPGAPQRLSTDGNQTNNNNNSSSSSNLLFATKSLNPILETKDRDEPAMSSVGPTMWLGAQDGWLYVHSSVGRWHECLHRVLLPDAVLAIVHVEARVVVALANAQLAVFRRQTDGQWDLNSYHLVTLGDRNHSIRCLCVAGERIWAAHRNKIFIVDPVSLNIVHSLDAHPRKESQVRQMAATGAGVWVSIRLDSTLRLYNTHTFEHKQDVDIEPYVSKMLGTGKLGFSFVRITALMVSCNRLWIGTSNGVIISVPLAEVQPKSSSDPHGQMPLCCMANAQLSFHGHRDAVKFFVSVPMLQQPNLNGGLTFTNKRPDMLVMCGGEGYIDFRINDNDMENSIQLEPNQTIENRGDKSYLIVWHVSQR	–	–	–	binds	binds

Next, values leading:

binding [1]	binding [2]	binding [3]	binding [4]	binding [5]	Molecule
binds weakly	binds	binds	–	–	HA-tagged GTP-locked, constitutively active Rab2 Q65L (from UniProt O18333 1-213)
–	–	binds	–	–	FLAG-tagged kinesin-1 light chain (Klc) (from UniProt P46824 1-508)
